# Measurements reported in PubChem BioAssay AID2551 (National Center for Advancing Translational Sciences (NCATS), 2010).
# Sequences of proteins named here, by UniProt entry; tags and fusion partners are left off. A change or cut given only in a name is not applied to a line headed by its entry.
# UniProt P51450: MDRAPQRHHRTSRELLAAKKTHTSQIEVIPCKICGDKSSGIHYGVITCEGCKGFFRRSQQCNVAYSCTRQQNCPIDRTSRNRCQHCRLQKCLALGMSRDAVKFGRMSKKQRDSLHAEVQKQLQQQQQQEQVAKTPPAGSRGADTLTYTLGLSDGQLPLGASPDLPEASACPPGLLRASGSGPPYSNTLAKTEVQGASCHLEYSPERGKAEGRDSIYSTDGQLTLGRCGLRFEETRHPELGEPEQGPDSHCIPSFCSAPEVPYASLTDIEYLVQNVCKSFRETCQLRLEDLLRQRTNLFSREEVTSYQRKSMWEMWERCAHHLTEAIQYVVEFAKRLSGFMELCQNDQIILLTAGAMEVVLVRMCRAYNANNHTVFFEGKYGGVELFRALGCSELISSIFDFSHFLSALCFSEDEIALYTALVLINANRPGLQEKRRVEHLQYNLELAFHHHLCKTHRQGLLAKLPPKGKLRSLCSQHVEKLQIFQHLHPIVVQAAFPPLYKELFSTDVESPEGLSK
# Values joined by “and” are separate entries in the source; they are usually repeats but may differ in a detail not shown here. Equal values may be shown once. Screen size: about 310,000 compounds; about 17,000 (5.5%) were called active. Inconclusive means that the source gave no clear call. Such entries were picked first, then a sample of the others. Calls come from the whole dose curve; as a rule, active = well fitted inhibition curve with a large enough effect; inconclusive = small, poorly fitted or top-dose-only effect, or effect the other way; inactive = no such curve, though single readings can be large or run the other way. Potencies beside an inconclusive call are fits to weak or partial responses and may not hold up.
# Target: Nuclear receptor ROR-gamma (Mus musculus) (UniProt P51450)
# Assay: qHTS for inhibitors of ROR gamma transcriptional activity; note: nearly all actives have a fitted effect of over 60% in size
# Conditions: Drosophila S2 Gal4-RORgamma UAS-luciferase reporter, 20 h; series mostly up to 53.6 µM
# In short: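 Read-out: Photinus luciferase luminescence; inhibitors lower reporter signal. Insect Schneider cells with Gal4-ROR gamma fusion under metallothionein promoter, UAS reporter; 700 uM final copper sulfate induction, 20 hr, ambient temperature.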
# Potency is the fitted concentration of half-maximal effect.
row,SMILES,Potency
1,COC(=O)c1ccnc(SCC(=O)c2ccccc2)c1,inactive
2,O=S(=O)(Nc1nc2c(s1)CCCC2)c1ccc(Br)cc1,"inconclusive: 20 µM [activator, partial curve]"
3,CCN1CC(CN(C)Cc2nc(-c3ccc(C(F)(F)F)cc3)no2)CC1=O (configuration not stated),"inconclusive: 12.6 µM [inhibitor, single point]"
4,Cc1cccc(C(=O)NN(C)c2nc(-c3ccccc3)nnc2C(F)(F)F)c1,inactive
5,O=C(Nc1ccc(Cc2ccncc2)cc1)c1ccc(N2CCOCC2)c([N+](=O)[O-])c1,inactive
6,COc1cc(/C=N/NC(=O)c2cncc(Br)c2)ccc1OC(=O)c1ccc2c(c1)OCO2,"inconclusive: 2.82 µM [inhibitor, full curve, poor fit]"
7,Cc1sc(NC(=S)NC(=O)c2ccc(C(C)(C)C)cc2)c(C#N)c1C,active: 0.562 µM
8,CCc1ccc2oc(-c3ccc(OC)cc3)cc(=Nc3c(C)n(C)n(-c4ccccc4)c3=O)c2c1,"inconclusive: 10 µM [inhibitor, single point]"
9,COc1ccc(OC)c(NC(=O)Cn2cc(C(=O)c3ccco3)c3ccccc32)c1,"inconclusive: 12.6 µM [activator, single point]"
10,CC(=O)Nc1ccc(OCC(O)Cn2c3ccccc3c3ccccc32)cc1 (configuration not stated),"inconclusive: 17.8 µM [activator, single point]"
11,COn1c(SCc2ccc(C)cc2C)nc2ccccc2c1=O,"inconclusive: 15.8 µM [activator, single point]"
12,COc1ccc(CC(=O)OCN2C(=O)c3ccccc3C2=O)cc1OC,inactive
13,CCOC(=O)c1ccc(Oc2nc(OC)nc(N(C)C)n2)cc1,"inconclusive: 10 µM [activator, partial curve]"
14,COCCCN1C(=O)c2ccc(C(=O)Nc3ccc(OC)cc3)cc2C1=O,"inconclusive: 14.1 µM [activator, single point]"
15,CCCN1CNC(=S)N(c2ccc(C)cc2C)C1,active: 3.98 µM
16,CCOc1ccc(S(=O)(=O)Oc2ccc3ccccc3c2)cc1,"inconclusive: 20 µM [activator, partial curve]"
17,COc1cc(/C=C(/C#N)C(=O)Nc2ccccc2)c(Br)cc1OCc1ccc(C(=O)O)cc1,"inconclusive: 35.5 µM [inhibitor, single point]"
18,N/C(COc1ccc(Cl)cc1)=N\NS(=O)(=O)c1ccccc1,"inconclusive: 12.6 µM [inhibitor, single point]"
19,Cc1c(-c2ccc(F)cc2)nc(N)c(C#N)c1-c1cccs1,"inconclusive: 11.2 µM [activator, partial curve]"
20,COC(=O)[C@@]1(Cc2ccc(OC)cc2)[C@@H]2C(=CC(=O)[C@H]2CC(=O)C(=O)N(C)C)CN1C(=O)c1ccccc1,"inconclusive: 35.5 µM [inhibitor, single point] and inconclusive: 31.6 µM [inhibitor, single point]"
21,COCCCNc1nc2ccccc2nc1NS(=O)(=O)c1cccc(C)c1,"inconclusive: 28.2 µM [activator, single point]"
22,Cc1cc(N(C)NC(=S)Nc2ccccc2)nc(C)n1,inactive
23,CN(C)S(=O)(=O)c1cc(NC(=O)CSc2nn(-c3ccc(Cl)cc3)c(=S)s2)ccc1Cl,"inconclusive: 35.5 µM [activator, single point]"
24,CN(C)C(=O)/C=C\c1cn(-c2ccccc2)nc1-c1ccc2c(c1)OCCO2,"inconclusive: 20 µM [activator, single point]"

row,SMILES,Potency
1,CN(Cc1cccs1)S(=O)(=O)c1cccs1,"inconclusive: 35.5 µM [inhibitor, single point]"
2,CCCCC(CC)COCCCN (configuration not stated),inactive
3,CCOc1cc(CNn2cnnc2)cc(Br)c1OCC(=O)NC1CCCCC1,"inconclusive: 35.5 µM [activator, single point]"
4,COc1cc(O)c(C(CCN2CCCCC2)c2ccc(N(C)C)cc2)c(OC)c1 (configuration not stated),"inconclusive: 2 µM [inhibitor, partial curve]"
5,CC(=O)CSc1ncnc2c1cnn2-c1ccccc1,inactive
6,Cc1cc(=O)[nH]c(SCc2csc(-c3ccccc3)n2)n1,"inconclusive: 11.2 µM [activator, partial curve]"
7,C=CCNC(=O)c1ccc(Cl)cc1Cl,inactive
8,O=C1CSC2(C(=O)N3CCCc4cccc2c43)N1c1cccc(C(F)(F)F)c1 (configuration not stated),inactive
9,Cc1nn(-c2ccccc2)c(Cl)c1/C=C1/C(=N)N2N=C(C(C)C)SC2=NC1=O,inactive
10,CCOC(=O)Cc1cc(=O)c2c(=O)n(-c3ccccc3)[nH]c2[nH]1,inactive
11,CCn1c(C(C)NC(=O)c2cccc(C)c2)nc2ccccc21 (configuration not stated),"inconclusive: 17.8 µM [inhibitor, single point]"
12,CCCCC(=O)N1C/C=C\C(c2ccc(OC)cc2)N(Cc2ccc(F)cc2)C(=O)[C@H]1Cc1ccccc1 (some centres not stated),"inconclusive: 17.8 µM [inhibitor, single point]"
13,Cc1cc(C)cc(NC(=S)NC2CC3CCCC(C2)N3C2CC2)c1 (configuration not stated),"inconclusive: 11.2 µM [inhibitor, single point]"
14,CCCC(=O)Nc1nc2ccc(OCC)cc2s1,"inconclusive: 35.5 µM [inhibitor, single point]"
15,O=C(COc1cc2oc(=O)c3c(c2cc1Cl)CCCC3)NCC1CCC(C(=O)O)CC1 (configuration not stated),inactive
16,CC(=O)OCC1OC(C#CCC2CCCCC2)C=CC1OC(C)=O (configuration not stated),"inconclusive: 3.55 µM [inhibitor, single point]"
17,Cc1ccc(S(=O)(=O)c2nc(NCCCn3ccnc3)sc2Cl)cc1,"inconclusive: 11.2 µM [activator, partial curve]"
18,CC(C)CN1C(=O)c2ccc(C(=O)Nc3ccncc3)cc2C1=O,"inconclusive: 35.5 µM [inhibitor, single point]"
19,COc1ccc(CCNC(=O)C2(C)CCC(=O)N2CCC(C)C)cc1OC (configuration not stated),inactive
20,O=C(c1ccco1)N1CCN(S(=O)(=O)c2ccc(C3CCCCC3)cc2)CC1,"inconclusive: 0.708 µM [activator, partial curve, poor fit]"
21,Oc1[nH]c(N=C2N=c3ccccc3=N2)c2ccccc12,active: 0.501 µM
22,COc1ccc(/C(C)=N/Nc2nncc3ccccc23)cc1,"inconclusive: 15.8 µM [inhibitor, single point]"
23,NC(=O)CC(NC(=O)c1cccc(Br)c1)c1ccc(N2CCC(N3CCCCC3)CC2)c([N+](=O)[O-])c1 (configuration not stated),inactive
24,CC12CCC(C(=O)N(CSC(=S)N/N=C\c3ccccc3O)C1=O)C2(C)C (configuration not stated),"inconclusive: 17.8 µM [inhibitor, partial curve, poor fit]"

row,SMILES,Potency
1,Cc1nn(CC2CCCCC2)c(N)c1-c1ccccc1,"inconclusive: 15.8 µM [inhibitor, single point]"
2,Cc1ccc(C)c(NS(=O)(=O)c2ccc(NC(=O)c3ccco3)cc2)c1,"inconclusive: 17.8 µM [activator, single point]"
3,CCOc1ccc(S(=O)(=O)N(CC(=O)N/N=C/c2cccs2)c2ccc(C)cc2)cc1,inactive
4,O=C(Nc1ccc(N2CCCCC2)c(Cl)c1)c1ncn[nH]1,"inconclusive: 17.8 µM [inhibitor, partial curve]"
5,COc1ccc2oc(=O)c(C(=O)N3CCN(c4ccccc4C)CC3)cc2c1,"inconclusive: 0.794 µM [inhibitor, single point]"
6,O=C(Nc1nc2ccccc2s1)NC1CCCCC1,active: 12.6 µM
7,CC1(C)Cc2cccc(C(=O)NC3CCN(Cc4ccccc4)CC3)c2O1,inactive
8,O=C(CCc1ccccc1)n1nc(-c2ccco2)nc1SCc1ccccc1,"inconclusive: 20 µM [activator, single point]"
9,COc1ccc(C(=O)CC2OC(=O)c3c2ccc(OC)c3OC)cc1 (configuration not stated),inactive
10,CN(Cc1ccc(OCC(O)CN2CCCCC2)cc1)Cc1ccnc2ccccc12 (configuration not stated),active: 7.08 µM
11,O=C(CCN1CCOCC1)NNC(=O)/C(=C/c1ccccc1)NC(=O)c1ccccc1,inactive
12,C=CCn1c(-c2cccc(OC)c2OC)n[nH]c1=S,active: 11.2 µM
13,Cc1ccccc1N1CC(O)(c2ccccc2)[N+]2=C1SCC2 (configuration not stated),"inconclusive: 3.16 µM [inhibitor, partial curve, poor fit]"
14,O=C(N/N=C/c1c[nH]c2ccc(Br)cc12)c1ccn(Cc2ccc(Cl)cc2)n1,"inconclusive: 12.6 µM [activator, single point]"
15,O=C(Nc1nccs1)C1C2/C=C\CCCCC21 (configuration not stated),"inconclusive: 35.5 µM [inhibitor, single point]"
16,N=c1c2c(-c3ccccc3)c(-c3ccccc3)n(Cc3ccco3)c2ncn1Cc1ccccc1,"inconclusive: 20 µM [inhibitor, single point]"
17,Cc1ccc(OCC(=O)Nc2c3c(nn2C(C)(C)C)CS(=O)(=O)C3)cc1,"inconclusive: 0.0089 µM [inhibitor, full curve, poor fit]"
18,CCOc1ccc(C(CCc2ccccc2)NC(=O)c2ccccc2OC)cc1OCC (configuration not stated),active: 7.94 µM
19,Cc1ccc(CNC(=O)c2cncc(Br)c2)cc1,inactive
20,O=C(CCS(=O)(=O)Cc1ccccc1)Nc1nncs1,inactive
21,O=C(c1ccc2nc(Cc3cccc(Cl)c3)oc2c1)N1CCOCC1,"inconclusive: 11.2 µM [activator, partial curve, poor fit]"
22,Cc1c(OCC(=O)NCc2ccccn2)ccc2c(-c3ccccc3)cc(=O)oc12,inactive
23,O=C(COC(=O)CCCN=C1NS(=O)(=O)c2ccccc21)NC(=O)NC1CCCC1,inactive
24,Cc1cc(C(=O)N[C@H](c2ccccc2)[C@@]2(C)C[C@@H]2[C@@H](C)C(=O)Nc2ccc3ccccc3c2)n(C)n1,"inconclusive: 31.6 µM [activator, single point]"
